Paper doi:10.1101/073015
Results are given in words; binding and its absence hold for the method and conditions named. Binding seen in cells or lysates may run through a third protein. Some entries that bind do so weakly or less than the wild type. Where a sequence is shown, tags or fusion partners need not be part of it.

Molecular target: T1, HT1 fused to cLUC (Arabidopsis thaliana) (UniProt Q2MHE4)
T1 sequence: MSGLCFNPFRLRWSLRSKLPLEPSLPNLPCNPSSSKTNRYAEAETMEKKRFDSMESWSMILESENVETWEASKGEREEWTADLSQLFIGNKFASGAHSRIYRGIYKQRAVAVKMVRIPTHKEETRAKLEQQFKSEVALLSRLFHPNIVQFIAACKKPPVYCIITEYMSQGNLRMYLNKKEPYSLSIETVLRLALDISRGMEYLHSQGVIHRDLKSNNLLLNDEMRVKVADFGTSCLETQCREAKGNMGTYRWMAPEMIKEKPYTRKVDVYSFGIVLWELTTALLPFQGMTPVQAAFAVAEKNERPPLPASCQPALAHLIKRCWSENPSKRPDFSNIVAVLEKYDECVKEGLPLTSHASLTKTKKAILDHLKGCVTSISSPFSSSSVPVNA
Assay: split reporter

- binding: binds
B1: MPK12 fused to the N-terminal half of luciferase (nLUC) (enzyme, UniProt Q8GYQ5 1-372)
chain: MSGESSSGSTEHCIKVVPTHGGRYVQYNVYGQLFEVSRKYVPPIRPIGRGACGIVCAAVNSVTGEKVAIKKIGNAFDNIIDAKRTLREIKLLRHMDHENVITIKDIVRPPQRDIFNDVYIVYELMDTDLQRILRSNQTLTSDQCRFLVYQLLRGLKYVHSANILHRDLRPSNVLLNSKNELKIGDFGLARTTSDTDFMTEYVVTRWYRAPELLLNCSEYTAAIDIWSVGCILGEIMTGQPLFPGKDYVHQLRLITELVGSPDNSSLGFLRSDNARRYVRQLPRYPKQQFAARFPKMPTTAIDLLERMLVFDPNRRISVDEALGHAYLSPHHDVAKEPVCSTPFSFDFEHPSCTEEHIKELIYKESVKFNPDH
